# In PubChem BioAssay AID720504 (National Center for Advancing Translational Sciences (NCATS), 2013):
# By UniProt entry, the sequences of proteins in these tests, tags left out.
# UniProt P53350, whole entry, looked up: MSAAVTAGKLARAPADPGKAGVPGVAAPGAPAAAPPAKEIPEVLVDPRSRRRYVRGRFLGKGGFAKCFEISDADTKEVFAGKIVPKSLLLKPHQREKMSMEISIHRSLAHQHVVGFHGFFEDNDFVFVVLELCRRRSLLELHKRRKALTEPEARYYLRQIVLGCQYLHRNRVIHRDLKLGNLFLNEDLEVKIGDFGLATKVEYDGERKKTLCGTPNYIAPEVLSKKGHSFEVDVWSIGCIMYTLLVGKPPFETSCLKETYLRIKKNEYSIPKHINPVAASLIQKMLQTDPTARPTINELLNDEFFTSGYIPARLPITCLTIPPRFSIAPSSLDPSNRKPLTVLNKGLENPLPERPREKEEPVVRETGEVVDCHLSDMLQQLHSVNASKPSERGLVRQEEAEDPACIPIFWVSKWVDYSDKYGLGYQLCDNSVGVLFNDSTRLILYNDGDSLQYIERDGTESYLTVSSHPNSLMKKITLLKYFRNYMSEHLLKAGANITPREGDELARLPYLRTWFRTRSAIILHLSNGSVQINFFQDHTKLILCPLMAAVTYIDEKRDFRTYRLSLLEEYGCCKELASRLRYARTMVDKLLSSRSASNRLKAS
# Among all 360,000 compounds or so, about 10,000 (2.8%) were called active. The inconclusive results got no clear call from the source; some entries with a clear call stand among them for comparison. The call rests on the fitted dose curve; in most records, active means well fitted inhibition curve with a large enough effect; inconclusive means small, poorly fitted or top-dose-only effect; inactive means flat fitted curve, though single readings scatter. Potencies beside an inconclusive call are fits to weak or partial responses and may not hold up.
# Biological target: Serine/threonine-protein kinase PLK1 (Homo sapiens) (UniProt P53350)
# Test: qHTS for Inhibitors of PLK1-PDB (polo-like kinase 1 - polo-box domain): Primary Screen; further: nearly all actives have a fitted effect of over 65% in size; on max response, negative = inhibition: series mostly up to about 57 µM
# Conditions: Plk1 PBD binding of FITC phosphopeptide, fluorescence polarization
# On the % scale 0 is the no-effect control and ±100 the full control effect; potency means the concentration at half of the fitted maximal effect.
Compound,Potency,"max response, negative = inhibition"
COc1ccc(/C=C2\N=C3CCCN3C2=O)cc1,"inconclusive: 37.7 µM [inhibitor, single point]",
O=C(NCCc1ccccc1)c1cc(-c2ccccc2)c(N2CCOCC2)s1,"inconclusive: 26.7 µM [inhibitor, single point]",
COc1ccc(N2C(=O)C3C4C=CC(C4)C3C2=O)nn1 (stereo unspecified),"inconclusive: 29.9 µM [inhibitor, single point]",
CC(C#Cc1ccc2c(c1)COc1c3ccccc3nn1-2)OC(C)(C)C (stereo unspecified),,inactive: 8.09%
CCOc1cc(C(c2c(O)nc(SC)[nH]c2=O)c2c(O)nc(SC)[nH]c2=O)ccc1O,active: 11.9 µM,
Cc1ccc2cc(C#N)c(NCc3ccco3)nc2c1,"inconclusive: 23.8 µM [inhibitor, partial curve]",
Cn1c(=O)c2cc(S(=O)(=O)NC(C(=O)Nc3cccnc3)c3ccccc3)ccc2n(C)c1=O (stereo unspecified),"inconclusive: 15 µM [inhibitor, partial curve]",
O=C(O)c1ccc(Nc2nc3ccccc3nc2NS(=O)(=O)c2cccs2)cc1,,inconclusive: -35.4% [inhibitor]
CC(C)C(=O)Nc1ccc([N+](=O)[O-])c(C(F)(F)F)c1,,inactive: -3.04%
O=C(Nc1ccc(S(=O)(=O)N2CCCC2)cc1)c1ccc([N+](=O)[O-])o1,,inconclusive: -31% [inhibitor]
CCOc1ccc(NC(=O)CSc2nc(N)c(-c3ccccc3)c(=O)[nH]2)cc1,"inconclusive: 21.2 µM [inhibitor, partial curve]",
COCCn1c(C)cc(C(=O)COC(=O)c2ccc3c(c2)NC(=O)CS3)c1C,"inconclusive: 5.32 µM [inhibitor, partial curve]",
NS(=O)(=O)c1ccc(CCNS(=O)(=O)c2ccc3c(c2)NC(=O)CO3)cc1,,inactive: -2.04%
Cc1cc(C(=O)NNC(=O)/C=C/c2ccco2)c(C)o1,active: 23.8 µM,
Cc1onc(-c2c(F)cccc2Cl)c1C(N)=S,"inconclusive: 8.44 µM [inhibitor, single point]",
O=C1/C(=C/C=C/c2ccco2)SC(=S)N1c1ccc(O)cc1,"inconclusive: 29.9 µM [inhibitor, partial curve]",
Cc1c(C(=O)Nc2nccs2)sc2nc(-c3cccs3)cc(C(F)(F)F)c12,,inactive: -3.78%
O=S(=O)(C(=CNc1ccccc1)S(=O)(=O)c1ccccc1)c1ccccc1,,inactive: -4.22%
CN(C)CCCn1c(=S)[nH]c2sc3c(c2c1=O)CCCC3,active: 18.9 µM,
O=C(Cc1ccc([N+](=O)[O-])cc1)N1CCCc2ccccc21,"inconclusive: 26.7 µM [inhibitor, single point]",
CCOc1ccccc1NC(=O)CSc1ccc(-c2sc(C)nc2C)nn1,"inconclusive: 21.2 µM [inhibitor, single point]",
S=c1[nH]ccn1-c1cccc(Cl)c1,"inconclusive: 26.7 µM [inhibitor, single point]",
COc1ccc(-c2oc3ccccc3c(=O)c2OCC(=O)O)cc1,active: 11.9 µM,

# Entries above containing a nitro group on carbon, in the order listed:
Compound,Potency,"max response, negative = inhibition"
CC(C)C(=O)Nc1ccc([N+](=O)[O-])c(C(F)(F)F)c1,,inactive: -3.04%
O=C(Nc1ccc(S(=O)(=O)N2CCCC2)cc1)c1ccc([N+](=O)[O-])o1,,inconclusive: -31% [inhibitor]
O=C(Cc1ccc([N+](=O)[O-])cc1)N1CCCc2ccccc21,"inconclusive: 26.7 µM [inhibitor, single point]",

# Remaining list, next part.

Compound,Potency,"max response, negative = inhibition"
NNC(=S)Nc1ccc(S(=O)(=O)N2CCOCC2)cc1,"inconclusive: 10.6 µM [inhibitor, partial curve, poor fit]",
COc1cccc(N2CCN(C3C4CC5CC(C4)CC3C5)CC2)c1 (stereo unspecified),,inactive: -3.85%
Cc1ccc(SC(=O)c2c([N+](=O)[O-])c(C)nn2C)cc1,"inconclusive: 26.7 µM [inhibitor, partial curve]",
COc1cccc(OCc2nnc(SCC(=O)N3c4ccccc4Sc4ccc(Cl)cc43)o2)c1,"inconclusive: 18.9 µM [inhibitor, partial curve]",
O=C(CN1CCN(S(=O)(=O)c2ccccc2)CC1)Nc1ccc([N+](=O)[O-])cc1,,inactive: -1.24%
COc1ccc(Cc2nnc(N)s2)cc1OC,"inconclusive: 21.2 µM [inhibitor, single point]",
O=C(COC(=O)C1CCC(=O)N1)Nc1ccccc1Br (stereo unspecified),active: 21.2 µM,
Cc1ccn2cc(-c3cccc(S(=O)(=O)N4CCCCC4)c3)nc2c1,"inconclusive: 21.2 µM [inhibitor, partial curve]",
CCC(=O)N[C@@H]1CC(C(C)(C)NC(=O)CC)CC=C1C (stereo partly specified),active: 29.9 µM,
COc1ccc(-c2nc(CN3CCC(C(=O)NCC4CCCO4)CC3)c(C)o2)cc1OC (stereo unspecified),active: 21.2 µM,
Cc1cc(C)cc(C(=O)N[C@@H](C)C(=O)N2CCC3(CC2)NCCc2[nH]cnc23)c1,"inconclusive: 33.6 µM [inhibitor, single point]",
CNS(=O)(=O)c1cc(Nc2ncnc3sccc23)ccc1C,,inactive: -11.9%
Cc1ccc(C(=O)NNC(=S)Nc2cccc(Cl)c2Cl)cc1[N+](=O)[O-],"inconclusive: 29.9 µM [inhibitor, single point]",
CCN(CC)S(=O)(=O)c1cccc(-c2nnc(SCC(N)=O)n2N)c1,"inconclusive: 29.9 µM [inhibitor, single point]",
O=C1/C(=C/c2ccccc2[N+](=O)[O-])COc2ccccc21,"inconclusive: 29.9 µM [inhibitor, partial curve]",
Cc1cc(C)nc(SSc2nc(C)cc(C)n2)n1,active: 1.89 µM,
O=C(CCc1nc2ccccc2s1)NCc1ccccc1F,"inconclusive: 29.9 µM [inhibitor, partial curve]",
O=C(COc1ccc(Br)cc1Cl)NC(=S)Nc1ccccn1,,inactive: -13.1%
O=C(Oc1c(Br)cc(C(=S)N2CCOCC2)cc1Br)c1ccc(Cl)cc1,active: 6.7 µM,
CC(/C=C1\SC(=S)N(CCCC(=O)Nc2ccc(C(=O)O)c(O)c2)C1=O)=C\c1ccccc1,active: 26.7 µM,
COc1cc2nc(CN(C)CC(=O)Nc3ccc(N4CCOCC4)cc3)[nH]c(=O)c2cc1OC,"inconclusive: 26.7 µM [inhibitor, partial curve]",
CC(C)(C)c1ccc(C(=O)C=[N+]=[N-])cc1,"inconclusive: 26.7 µM [inhibitor, partial curve]",
S=c1[nH]nc(CSc2nc3ccccc3s2)o1,"inconclusive: 23.8 µM [inhibitor, partial curve]",
